Test results from patent US20250051403A1, “ANTIMICROBIAL PEPTIDES, VARIANTS AND CHEMICAL ANALOGUES THEREOF AND THEIR USES” (priority 2021, published 2025).
For part of these data: At least one peptide structure holds a part that was inferred or is arguable (an end, a ring closure or a residue). For part of these data: For at least one compound, name, drawing or mass did not settle the structure. Some of these results come from one statement about several compounds together. Positions of bridges follow the written chain, without caps; N, C: chain ends. Residues, ends and D or L forms follow the SMILES beside them.

Experiments:
Pseudomonas sp biofilm = assay: Biofilm formation assay (crystal violet); type: cell-based; conditions: 20 μM peptide, 2 h at 37° C. on 48 h biofilm; untreated culture 0.95
Protocol: Overnight cultures of V. diabolicus and Pseudomonas sp (37° C., 200 rpm) were diluted to an OD600 of 0.1 in MHB medium and 200 μL aliquots of the suspensions were introduced into the wells of a 96 microtiter plates (Nunc). Plates were then incubated at 37° C. without shaking for 48 h. After removal of the standing culture, the wells were washed with MHB medium and Michelicin, Arenicin and Alvinellacin were added, respectively, at a final concentration of 20 μM in MHB. The treatment was performed during 2 h at 37° C. Wells were then washed three times with distilled water and the remaining attached bacteria were fixed with 99% methanol per well for 20 min at room temperature. Afterward, methanol was removed and plates were air-dried. Biofilms were stained with 300 μL of 1% crystal violet (v/v) for 20 min at room temperature, before the residual stain was removed. After washing, the crystal violet bound to the adherent cells was solubilized with 300 μL of 100% ethanol and absorbance was measured at 595 nm (TECAN, sunrise). Sterile medium served as negative control. It is clear on the view of FIG. 3 that Michelicin has a greater antimicrobial activity on a biofilm of Pseudomonoas sp strains than Alvinellacin. For Pseudomonas sp, OD595 is equal to 0.6 when treated with Michelicin, equal to 0.55 when treated with Arenicin and equal to 0.65 when treated with Alvinellacin. […]

Vibrio alginolyticus = assay: Effect of temperature on antimicrobial activity (inhibition zone assay); type: cell-based; conditions: five times the MIC, 0-60 min incubation at 90° C.
P. aeruginosa [1] = assay: Membrane permeabilization assay (propidium iodide); type: cell-based, Pseudomonas aeruginosa; conditions: 2.5 min of incubation, 37° C., 3 times their MIC; CTAB at 300 μM
Protocol: Several tests were performed to determine the mechanism of the antimicrobial activity of the peptides of the invention. Most of the cationic AMP can increase the permeability of the bacterial membrane through pore-forming activity. We evaluated the ability of Michelicin to cause pore-formation using P. aeruginosa as model bacteria. Permeabilization of the bacterial membrane by Michelicin was evaluated using the cell-impermeable DNA probe propidium iodide (PI) (Di Pasquale et al., 2010; Oyama et al., 2017). PI can interact with DNA/RNA, leading to increase in fluorescence of the molecule. The bacterial membrane is impermeable to PI preventing its interaction with intracellular DNA/RNA. Thus, fluorescence of PI (expressed as RFU: relative fluorescence unit) only increases if membrane integrity is compromised through pore-formation. We measured the time-dependent effect of our peptide and other molecules on PI fluorescence at 37° C., all molecules being tested at 3 times their MIC. […] Kinetics of fluorescence variations (excitation at 530 nm/emission at 590 nm) were recorded using a microplate reader (SynergyMx, Bioteck) over 80 min period at 37° C. […] The permeabilization effect of the tested compound (i.e., Michelicin, Alvinellacin, Arenicin, and control, PMB or CTAB) was expressed as percentage of total permeabilization caused by CTAB.

V. alginolyticus [2] = assay: Membrane permeabilization, propidium iodide assay; type: cell-based, Vibrio alginolyticus; conditions: increasing concentration, 37° C., 5 min; higher effect than on V. diabolicus
V. diabolicus [3] = assay: Membrane permeabilization, propidium iodide assay; type: cell-based, Vibrio diabolicus; conditions: increasing concentration, 37° C., 5 min
V. alginolyticus [4] = assay: Scanning electron microscopy of treated bacteria; type: cell-based, Vibrio alginolyticus; conditions: FIG. 9
Source text: (§1) The arrows show pore formed through the membrane. For V. diabolicus, despite the results of FIG. 3, is seems that Michelicin has a pore-forming activity on these bacteria.

V. diabolicus [5] = assay: Scanning electron microscopy of treated bacteria; type: cell-based, Vibrio diabolicus; conditions: FIG. 9
Source text: as §1

P. aeruginosa [6] = assay: Serial passage/resistance assay; type: cell-based, Pseudomonas aeruginosa; conditions: continuous exposure to sub-lethal doses, 30 days

## CC[C@H](C)[C@@H]1NC(=O)[C@H](CCCNC(=N)N)NC(=O)[C@H](C(C)C)NC(=O)[C@@H](NC(=O)[C@@H](NC(=O)[C@@H](N)CCCNC(=N)N)C(C)C)CSSC[C@@H](C(=O)N[C@@H](Cc2c[nH]c3ccccc23)C(=O)N[C@@H](CC(N)=O)C(=O)N[C@H](C(=O)O)[C@@H](C)O)NC(=O)[C@H](CCCNC(=N)N)NC(=O)[C@H](CCCNC(=N)N)NC(=O)[C@H](Cc2ccc(O)cc2)NC(=O)[C@@H]2CSSC[C@H](NC1=O)C(=O)N[C@@H](CCCNC(=N)N)C(=O)N[C@@H](CC(N)=O)C(=O)NCC(=O)N[C@@H](CCCNC(=N)N)C(=O)N2 [Michelicin, RVC1VRIC2RNGRC3YRRC4WNT] (H-RVCVRICRNGRCYRRCWNT-OH; disulfide 3-16, 7-12)
Pseudomonas sp biofilm
  Biofilm OD595 after treatment: 0.6
Vibrio alginolyticus
  Thermostability of antimicrobial activity: quite less thermostable than Arenicin or Alvinellacin
P. aeruginosa [1]
  Permeabilization (percentage of total permeabilization caused by CTAB): 25-30%
V. alginolyticus [2]
  Pore-forming activity (propidium iodide fluorescence): confirmed pore-forming activity
V. diabolicus [3]
  Pore-forming activity (propidium iodide fluorescence): confirmed pore-forming activity
V. alginolyticus [4]
  Membrane damage seen by scanning electron microscopy: able to damage
V. diabolicus [5]
  Membrane damage seen by scanning electron microscopy: able to damage

## CCCCCCCCCCCCCCCC[N+](C)(C)C.[Br-] [CTAB, Cetyl trimethylammonium bromide]
P. aeruginosa [1]
  Permeabilization (percentage of total permeabilization caused by CTAB): 25-30%

## C[C@@H](O)[C@H]1C(=O)N2C(C(=O)O)=C(SCCN=CN)C[C@H]12 [Imipenem]
P. aeruginosa [6]
  Resistance induction / fold increase in initial MIC (in words): relevant
